Measured values published in patent US20160251725A1, “METHOD FOR PREDICTING CLINICAL TOXICITY AND OUTCOME” (AGENCY FOR SCIENCE, TECHNOLOGY AND RESEARCH, priority 2013, published 2016).
Read-outs that look alike come from different tables or passages of the source. For at least one compound, name, drawing or mass did not settle the structure.

Assays:
[1] = system: mRCC patients; experiment: Tumor response to sunitinib (RECIST version 1.1), clinical benefit / primary resistance; type: in vivo, human
Protocol: (§1) Twelve patients in this study received a starting dose of 50 mg daily. Six patients started with 25 mg daily due to advanced age or patients' aversion to expected toxicities.
Patient characteristics were also collected including age, gender, ethnicity, body weight and height, and Eastern Cooperative Oncology Group (ECOG) performance status. Memorial Sloan-Kettering Cancer Center (MSKCC) prognostic score was calculated for each patient with available data. All the collected data were de-identified by a third party before being used in statistical analysis. The follow-up period ended at the end of April, 2014.
(§2) Genotype associations with toxicity events or responsive tumor were first analyzed using univariate logistic regression. Genotypes generating P<0.20 were further analyzed using multivariate logistic regression including patient age, gender, baseline ECOG status and starting dose as covariates. Progression-free survival and overall survival were estimated by means of Kaplan-Meier method, while the associations of genotypes and patient characteristics with PFS and OS were analyzed using two-tailed log rank test. The effects of genotypes on the progression-free survival and overall survival were then evaluated using multivariate Cox regression model by including genotypes and patient characteristics with P<0.05 in univariate analysis. […] In all analyses, missing data were kept missing except for baseline ECOG status, which was replaced with the median value. As this was designed as a validation study of previously observed correlations rather than an exploratory evaluation, multiple testing correction was not done.

[2] = system: mRCC patients; experiment: Progression-free and overall survival on first-line sunitinib (Kaplan-Meier, Cox regression); type: in vivo, human; conditions: ABCB1 3435, 1236, 2677 TTT haplotype; starting dose as covariate
Protocol: as §1, §2

[3] = system: patients; conditions: cited from earlier work
[4] = ABCB1 1236 T/C TT genotype, n = 88, Beuselinck et al., 2013

## CCN(CC)CCNC(=O)c1c(C)[nH]c(/C=C2\C(=O)Nc3ccc(F)cc32)c1C [sunitinib]
[1]; carriers of ABCB1 2677 TT genotype
  Primary sunitinib resistance (progressive disease as the best response): more common
[1]; carriers of ABCB1 3435, 1236, 2677 TTT haplotype
  Primary sunitinib resistance (progressive disease as the best response): more common
[1]; carriers of ABCB1 3435 TT genotype
  Primary sunitinib resistance (progressive disease as the best response): more common
[2]
  Overall survival (in words): inferior
  Progression-free survival (in words): inferior
[3]; [4]
  OS: Poorer PFS and
  PFS: Poorer PFS and
[3]; ABCB1 TCG haplotype, n = 136, van der Veldt et al., 2011
  PFS: PFS increased
